Assay [1] has as its target hSVCT1-GFP F466A mutant (human) (UniProt Q9UHI7). Nature of the assay: SEC; fluorescence-detection SEC (FSEC, GFP fluorescence) of HEK293T lysates of wild type or mutants solubilised in 1% LMNG and 0.1% CHS; Superdex 200 Increase 10/300 GL or ENrich SEC 650; curves compared to wild type. A general note: Size exclusion chromatography separates by hydrodynamic size, large species first.

Chains of the proteins cited; added tags and fusions are not shown. Lines headed by an entry give the natural chain unless they say otherwise; changes in a name come on top.
UniProt Q9UHI7: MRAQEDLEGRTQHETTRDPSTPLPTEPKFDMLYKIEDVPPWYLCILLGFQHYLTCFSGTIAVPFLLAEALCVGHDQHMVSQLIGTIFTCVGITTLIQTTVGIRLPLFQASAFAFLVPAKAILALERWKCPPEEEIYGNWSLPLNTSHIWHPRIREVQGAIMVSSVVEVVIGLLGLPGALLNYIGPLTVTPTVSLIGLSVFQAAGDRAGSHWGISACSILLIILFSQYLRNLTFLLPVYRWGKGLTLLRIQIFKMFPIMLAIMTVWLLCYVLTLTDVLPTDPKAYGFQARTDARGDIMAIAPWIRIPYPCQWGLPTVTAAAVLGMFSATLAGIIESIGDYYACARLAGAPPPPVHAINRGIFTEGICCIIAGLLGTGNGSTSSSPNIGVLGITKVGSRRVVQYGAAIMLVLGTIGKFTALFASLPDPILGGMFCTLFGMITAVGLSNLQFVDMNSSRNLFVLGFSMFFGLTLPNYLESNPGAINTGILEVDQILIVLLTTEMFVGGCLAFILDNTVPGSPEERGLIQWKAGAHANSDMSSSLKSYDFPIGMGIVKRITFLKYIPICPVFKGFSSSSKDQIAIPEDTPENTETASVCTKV

Assay [2] deals with C-terminally GFP-fused human SVCT1 (hSVCT1-GFP), wild type (human) (UniProt Q9UHI7). Nature of the assay: SEC; fluorescence-detection SEC (FSEC, GFP fluorescence) of HEK293T lysates solubilised in DDM, DDM-CHS, LMNG or LMNG-CHS; Superdex 200 Increase 10/300 GL; 20 mM HEPES pH 7.0, 150 mM NaCl (or K+ in place of Na+).
The target is the same in assay [3]. Nature of the assay: SEC; fluorescence-detection SEC (FSEC, GFP fluorescence) of HEK293T lysates of wild type or mutants solubilised in 1% LMNG and 0.1% CHS; Superdex 200 Increase 10/300 GL or ENrich SEC 650; curves compared to wild type.

Results are given in words; binding and its absence hold for the method and conditions named. Some results given as binding are weak or reduced against the parent protein; the word gives no strength.

Take “hSVCT1-GFP F466A mutant (from UniProt Q9UHI7 1-598)”: in assay [1], the binding entry is “binds”.
Take “C-terminally GFP-fused human SVCT1 (hSVCT1-GFP), wild type (from UniProt Q9UHI7 1-598)”: the binding entry in assay [2] and in assay [3] was “binds” each time.

The values are drawn from paper PMC11219872.
